Reference: article doi:10.1101/2023.10.27.564100
Results are given in words; binding and its absence hold for the method and conditions named.

Biological target: human Hv1 transmembrane domain (Hv1-TM) (human) (UniProt Q96D96)
Test: SEC

B1: human Hv1 transmembrane domain (Hv1-TM) (domain or fragment, UniProt Q96D96 97-223)
chain: SSHRFQVIIICLVVLDALLVLAELILDLKIIQPDKNNYAAMVFHYMSITILVFFMMEIIFKLFVFRLEFFHHKFEILDAVVVVVSFILDIVLLFQEHQFEALGLLILLRLWRVARIINGIIISVKTR
- binding: no binding
